{"source": "patent US20170172953A1", "about": "“SELF-ASSEMBLING DRUG DELIVERY VEHICLES WITH IONICALLY CROSS-LINKED DRUGS” (WILLIAM MARSH RICE UNIVERSITY, priority 2014, published 2017)", "experiment": "Parallel plate rheometry of crosslinked SLac peptide hydrogels", "assay_type": "physicochemical", "details": "drug as crosslinker of 1 w % SLac hydrogel, pH 7.4", "experimental": "Peptide solutions were made by dissolving lyophilized SLac in 298 mM sucrose-water at a concentration of 2 w %, pH 7.4. Hydrogels were constructed by addition of Hank's balanced salt solution (HBSS) at a 1:1 ratio. Multivalent drugs were added at similar concentrations, approximating physiological doses, to SLac solutions with final concentrations of: SLac—0.4 mM (1 w %); concentration of positive lysine charges—0.8 mM; suramin—3.8 mM (0.5 w %) or 0.38 mM (0.05 w %); trypan blue—3.2 mM (0.2 w %); heparin ˜2.78 mM (5 w %); clodronate disodium—3.4 mM; phosphate buffer—38 mM and 5 mM; and 0.9% saline. Negatively charged polyvalent ions in buffer solution facilitated intermolecular ionic interactions with lysine residues, crosslinking the hydrogel. Rheological behavior of peptide hydrogels was determined using an 8 mm parallel plate geometry at a gap of 250 μm. 50 μL of hydrogel was constructed and, within 30 min, placed on stainless steel plates of a rheometer. A frequency sweep (0.1-100 Hz, at constant 1% strain), strain sweep (0-1000%/strain, at 1 Hz) and shear recovery (1% strain for 30 min, 100% strain for 60 s, 1% strain for 30 min) were performed. We ensured the phase angle δ≦90° to ensure no slipping.", "note": "At least one compound was matched to its structure with a doubt left.", "data": [{"smiles": "O=P(O)(O)C(Cl)(Cl)P(=O)(O)O", "note": "[clodronate disodium]", "values": [{"measurement": "mechanical strength, storage modulus G′ / loss modulus G″", "value": "distinct increase in G′/G″ over phosphate alone or saline"}, {"measurement": "mechanical strength, storage modulus G′ / loss modulus G″", "setting": "listed as clodronate", "value": "increase in mechanical strength"}]}]}
